# Measured values taken from PubChem BioAssay (EPA / NIEHS).
# Amino acid sequences for entries named in this document (tags omitted).
# UniProt P04637, whole entry, looked up: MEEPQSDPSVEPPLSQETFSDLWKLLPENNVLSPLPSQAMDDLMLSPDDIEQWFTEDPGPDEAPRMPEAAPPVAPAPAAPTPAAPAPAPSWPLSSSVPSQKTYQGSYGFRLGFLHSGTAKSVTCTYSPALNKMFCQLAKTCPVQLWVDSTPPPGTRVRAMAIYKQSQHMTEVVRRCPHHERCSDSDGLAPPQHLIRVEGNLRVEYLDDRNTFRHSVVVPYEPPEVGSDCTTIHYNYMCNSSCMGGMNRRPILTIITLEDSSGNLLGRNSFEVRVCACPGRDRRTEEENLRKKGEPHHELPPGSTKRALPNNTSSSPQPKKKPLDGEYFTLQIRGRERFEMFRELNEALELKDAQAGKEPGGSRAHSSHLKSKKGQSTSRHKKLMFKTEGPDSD
# Several values for one entry are separate records, joined by “and”; a condition that tells them apart may be missing. Equal values may be shown once. Inconclusive means that the source gave no clear call. Such entries were picked first, then a sample of the others. For some of these results: Potencies beside an inconclusive call are fits to weak or partial responses and may not hold up. Activity calls are given as the source filed them. Rule for the calls: active = hit-call score of the fitted dose curve at least 0.9, where 1 is the maximum; inconclusive = response in the unintended direction; inactive = score below 0.9.
# How the values were obtained:
# [1] = TOX21_p53_BLA_p3_viability: Viability Assessment in the Tox21 HCT-116 p53 Agonism Beta-lactamase Assay, Phase 3 (AID 2283593);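 note: cells exposed to compound for 16 h before reading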
# Method in brief: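 Cellular ATP was quantified by CellTiter-Glo luminescence, read after 30 min at room temperature. Beforehand, HCT116 cells (4000/well) received compound 5 h post-seeding, 217-fold diluted from DMSO, then incubated 16 h at 37C.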
# [2] = target: Cellular tumor antigen p53 (Homo sapiens) (UniProt P04637); assay: TOX21_p53_BLA_p3_ratio: Tox21 HCT-116 p53 Agonism Beta-lactamase Assay, Ratio, Phase 3 (AID 2283596)
# Method in brief: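 HCT116 p53-bla cells (4000/well) given compound in DMSO (217-fold dilution) after 5 h, incubated 16 h at 37C. CCF4-AM substrate 2 h at room temperature; 460/530 nm emission ratio, gain fitted against DMSO.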
# [3] = TOX21_p53_BLA_p4_viability: Viability Assessment in the Tox21 HCT-116 p53 Agonism Beta-lactamase Assay, Phase 4 (AID 2283597);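 note: hits lower the luminescence signal meaning cytotoxicity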
# Method in brief: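 Luminescent ATP readout (CellTiter-Glo, 30 min, room temperature) in the same wells as the p53 bla ratio. HCT116 cells were treated for 16 h at 37C with DMSO-dissolved compounds.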
# [4] = target: Cellular tumor antigen p53 (Homo sapiens) (UniProt P04637); assay: TOX21_p53_BLA_p5_ratio: Tox21 HCT-116 p53 Agonism Beta-lactamase Assay, Ratio, Phase 5 (AID 2283599)
# Method in brief: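 Beta-lactamase reporter ratio (blue 460 nm over green 530 nm, 405 nm excitation) after 2 h CCF4-AM loading, in HCT-116 cells exposed 16 h at 37 C to compounds pinned at 217-fold dilution. Increases relative to DMSO baseline scored.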
# [5] = TOX21_p53_BLA_p5_viability: Viability Assessment in the Tox21 HCT-116 p53 Agonism Beta-lactamase Assay, Phase 5 (AID 2283600)
# Method in brief: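 Seeded cells (4000/well) settle 5 h before compound addition. Plates then incubate 16 h at 37C, receive FRET substrate for 2 h, and finally CellTiter-Glo, with luminescence measured after a 30 min room-temperature incubation.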
# [6] = target: Cellular tumor antigen p53 (Homo sapiens) (UniProt P04637); assay: TOX21_p53_BLA_p4_ratio: Tox21 HCT-116 p53 Agonism Beta-lactamase Assay, Ratio, Phase 4 (AID 2283601)
# Method in brief: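 Signal is the blue/green (460nm/530nm) ratio of cleaved versus uncleaved CCF4-AM substrate, read after 2 h substrate loading. Cells were HCT116 carrying the p53-responsive beta-lactamase reporter, dosed 16 h at 37C, 5% CO2; CellTiter-Glo measured in parallel.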
# [7] = CCTE_Harrill_HTTr_CellCount_MCF7: CCTE's Cell Proliferation Assessment for the High-Throughput Transcriptomics (HTTr) Platform, Harrill Lab (AID 2284012);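 note: cells exposed to compound for six hours; intended direction is loss of nuclei count meaning fewer cells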
# Method in brief: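 MCF7 cells exposed 6 hours to an eight-point dilution series; Hoechst-stained nuclei counted by high-content imaging. Bidirectional curve fitting against DMSO baseline.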
smiles,measurement,setting,value
CCc1ccc(C)cc1,AC50,[1],inconclusive: 45.7 µM
same,AC50,[2],inconclusive: 45.7 µM
same,AC50,[3],inconclusive: 45.7 µM
same,AC50,[4],inconclusive: 45.7 µM
same,outcome,[5],inactive
same,AC50,[6],inconclusive: 45.7 µM
CCOC(=O)O[C@]1(C(=O)OCCl)CC[C@H]2[C@@H]3CCC4=CC(=O)C=C[C@]4(C)[C@H]3[C@@H](O)C[C@@]21C,AC50,[1],inconclusive: 0.00147 µM
same,outcome,[2],inactive
same,AC50,[3],inconclusive: 23 µM
same,AC50,[4],inconclusive: 34.2 µM
O=C(CCCN1CCN2CCCC2C1)c1ccc(F)cc1 (stereo not drawn),AC50,[1],inconclusive: 44.6 µM
same,AC50,[2],inconclusive: 23 µM
same,outcome,[3],inactive
same,AC50,[4],inconclusive: 23 µM
same,AC50,[6],inconclusive: 23 µM
N[C@H](C(=O)O)c1ccc(O)cc1,AC50,[1],inconclusive: 5.9e-05 µM
same,AC50,[2],inconclusive: 23 µM
same,AC50,[3],inconclusive: 23 µM
O=[N+]([O-])c1ccccc1Nc1ccccc1,AC50,[1],inconclusive: 0.0052 µM
same,outcome,[2],inactive
same,AC50,[3],inconclusive: 45.9 µM
Nc1ccccn1,AC50,[1],inconclusive: 44.2 µM
same,AC50,[2],inconclusive: 73.7 µM
same,outcome,[3],inactive
CCN(CC)CCNC(=O)c1cc(Br)c(N)cc1OC,AC50,[1],inconclusive: 23 µM
same,AC50,[2],inconclusive: 23 µM
same,AC50,[3],inconclusive: 23 µM
same,AC50,[4],inconclusive: 23 µM
same,outcome,[6],inactive
O=C(O)Cc1cccc(-c2cc(CCCCCCc3ccc(O[C@H]4O[C@H](CO)[C@@H](O)[C@H](O)[C@@H]4O)c(-c4cccc(CC(=O)O)c4)c3)ccc2O[C@H]2O[C@H](CO)[C@@H](O)[C@H](O)[C@@H]2O)c1,outcome,[1],inactive
same,AC50,[2],inconclusive: 23 µM
same,outcome,[3],inactive
same,outcome,[5],inactive
same,AC50,[6],inconclusive: 23 µM
CC(=C(CCOP(=O)(O)O)SC(=O)c1ccccc1)N(C=O)Cc1cnc(C)nc1N,AC50,[1],inconclusive: 10.3 µM
same,outcome,[2],inactive
same,AC50,[3],inconclusive: 19.4 µM
same,AC50,[5],inconclusive: 10.3 µM
same,outcome,[6],inactive
CC(C)OC(=O)C(C)N(C(=O)c1ccccc1)c1ccc(F)c(Cl)c1 (stereo not drawn),outcome,[1],inactive
same,AC50,[2],inconclusive: 46.1 µM
same,outcome,[4],inactive
same,outcome,[5],inactive
CCN(CCCCOC(=O)c1ccc(OC)c(OC)c1)C(C)Cc1ccc(OC)cc1 (stereo not drawn),outcome,[1],inactive
same,AC50,[2],inconclusive: 10.3 µM
same,AC50,[4],inconclusive: 10.3 µM
O=C(O)COc1ccc(C(=O)c2cccs2)c(Cl)c1Cl,AC50,[1],inconclusive: 23 µM
same,AC50,[2],inconclusive: 44.2 µM and inconclusive: 23 µM
same,outcome,[3],inactive
same,AC50,[6],inconclusive: 23 µM
NS(=O)(=O)c1cc2c(cc1Cl)NC(CC1CCCC1)NS2(=O)=O (stereo not drawn),AC50,[1],inconclusive: 10.3 µM
same,AC50,[2],inconclusive: 10.3 µM
same,AC50,[3],inconclusive: 10.3 µM
same,AC50,[6],inconclusive: 10.3 µM
CCCCCCCCOc1ccc(C(=O)O)cc1,AC50,[1],active: 45.7 µM
same,AC50,[2],active: 79.4 µM
same,outcome,[3],inactive
same,outcome,[5],inactive
same,AC50,[6],inconclusive: 45.7 µM
CC(=O)c1sc(C)nc1C,outcome,[1],inactive
same,outcome,[2],inactive
same,AC50,[3],inconclusive: 46.1 µM
same,AC50,[5],inconclusive: 46.1 µM
CC1(C)[C@@H]2CC[C@]3(C2)[C@@H]1C(=O)CCC3(C)C,AC50,[1],inconclusive: 0.419 µM
same,AC50,[2],inconclusive: 46.1 µM
same,AC50,[4],inconclusive: 46.1 µM
Cc1[nH]cnc1CN1CCc2c(c3ccccc3n2C)C1=O,outcome,[1],inactive
same,AC50,[2],inconclusive: 23 µM
same,AC50,[3],inconclusive: 23 µM
same,outcome,[5],inactive
CC(=O)OCC(=O)[C@@]12OC3(CCCC3)O[C@@H]1C[C@H]1[C@@H]3CCC4=CC(=O)C=C[C@]4(C)[C@@]3(F)[C@@H](O)C[C@@]12C,outcome,[1],inactive
same,AC50,[2],inconclusive: 23 µM
same,AC50,[3],inconclusive: 0.000935 µM
same,AC50,[4],inconclusive: 39.8 µM
same,outcome,[6],inactive
CC1c2ccccc2CN1NC(=O)c1ccc(Cl)c(S(N)(=O)=O)c1 (stereo not drawn),AC50,[1],inconclusive: 23 µM
same,AC50,[2],inconclusive: 23 µM
same,outcome,[3],inactive
same,outcome,[5],inactive
O=C(O)CCC(=O)c1ccc(-c2ccccc2)cc1,AC50,[1],inconclusive: 10.3 µM
same,outcome,[2],inactive
same,outcome,[3],inactive
same,outcome,[4],inactive
same,AC50,[6],inconclusive: 10.3 µM
CCCCCC,AC50,[1],inconclusive: 46 µM
same,outcome,[2],inactive
same,AC50,[3],inconclusive: 46 µM
same,AC50,[5],inconclusive: 1.12 µM
O=C(CCCN1CCC(C(=O)c2ccc(F)cc2)CC1)c1ccc(F)cc1,outcome,[1],inactive
same,AC50,[2],inconclusive: 23 µM
same,AC50,[4],inconclusive: 23 µM
c1coc(Cn2cccc2)c1,AC50,[1],inconclusive: 46.1 µM
same,outcome,[2],inactive
same,AC50,[3],inconclusive: 46.1 µM
same,outcome,[5],inactive
CC1CC(C)C(=O)C1=O (stereo not drawn),AC50,[1],inconclusive: 13.9 µM
same,outcome,[2],inactive
same,AC50,[3],inconclusive: 46.1 µM
same,AC50,[6],inconclusive: 46.1 µM
CC(C)(Oc1ccc(C2CCCc3ccccc32)cc1)C(=O)O (stereo not drawn),outcome,[1],inactive
same,AC50,[2],inconclusive: 23 µM
same,outcome,[3],inactive
same,AC50,[4],inconclusive: 23 µM
same,AC50,[6],inconclusive: 23 µM
Cc1cc(O)cc2c1O[C@](C)(CCC[C@H](C)CCC[C@H](C)CCCC(C)C)CC2,outcome,[1],inactive
same,AC50,[2],inconclusive: 23 µM
same,AC50,[3],inconclusive: 23 µM and inconclusive: 8.48 µM
same,AC50,[5],inconclusive: 23 µM
CCOc1ccc(N=C(C)Nc2ccc(OCC)cc2)cc1,outcome,[1],inactive
same,AC50,[2],inconclusive: 23 µM
same,outcome,[3],inactive
same,AC50,[6],inconclusive: 23 µM
CC(C)c1ccccc1,AC50,[1],inconclusive: 87.4 µM
same,outcome,[2],inactive
same,AC50,[3],inconclusive: 47.5 µM
same,AC50,[5],inconclusive: 47.5 µM
CCC[C@H](N[C@@H](C)C(=O)N1[C@H](C(=O)O)C[C@@H]2CCCC[C@@H]21)C(=O)OCC,outcome,[1],inactive
same,outcome,[2],inactive
same,AC50,[3],inconclusive: 23 µM
same,AC50,[4],inconclusive: 23 µM
same,outcome,[6],inactive
same,outcome,[7],inactive
CCCCCCOc1ccccc1C(N)=O,AC50,[1],inconclusive: 23 µM
same,outcome,[2],inactive
same,outcome,[3],inactive
same,AC50,[6],inconclusive: 23 µM
CCCCCC=CCC1CC(=O)OC1=O (stereo not drawn),AC50,[1],inconclusive: 46.1 µM
same,outcome,[2],inactive
same,AC50,[3],inconclusive: 46.1 µM
same,outcome,[5],inactive
O=C1N(c2ccccc2)c2ccccc2C1(Cc1ccncc1)Cc1ccncc1,AC50,[1],inconclusive: 6.59 µM
same,AC50,[2],inconclusive: 36.2 µM
same,outcome,[3],inactive
same,AC50,[5],inconclusive: 23 µM
O=C(O)CCNC(=O)c1ccc(N=Nc2ccc(O)c(C(=O)O)c2)cc1,AC50,[1],inconclusive: 23 µM
same,AC50,[2],inconclusive: 23 µM
same,outcome,[3],inactive
same,AC50,[5],inconclusive: 23 µM
Cc1cc(=O)oc2cc(O)cc(O)c12,AC50,[1],inconclusive: 46.2 µM
same,outcome,[2],inactive
same,AC50,[3],inconclusive: 68.3 µM
same,outcome,[5],inactive
same,AC50,[6],active: 41.7 µM
CCC1=C(C)CN(C(=O)NCCc2ccc(S(=O)(=O)NC(=O)NC3CCC(C)CC3)cc2)C1=O (stereo not drawn),AC50,[1],inconclusive: 7.2e-05 µM
same,AC50,[2],inconclusive: 26.5 µM
same,outcome,[3],inactive
same,AC50,[5],inconclusive: 23 µM
same,AC50,[6],inconclusive: 42.6 µM
CCNc1cc(O)ccc1C,AC50,[1],inconclusive: 45.7 µM
same,AC50,[2],inconclusive: 45.7 µM
same,AC50,[4],inconclusive: 45.7 µM
C=CCCCCCCC=C,AC50,[1],inconclusive: 46.2 µM
same,AC50,[2],inconclusive: 46.2 µM
same,AC50,[4],inconclusive: 46.2 µM
CN1CCN(C(=O)C2CCCCC2)CC1,AC50,[1],inconclusive: 23 µM
same,AC50,[2],inconclusive: 23 µM
same,AC50,[3],inconclusive: 23 µM
same,AC50,[4],inconclusive: 23 µM
same,AC50,[6],inconclusive: 23 µM
CCCCCCCCCCCCOC(=O)c1ccc(O)cc1,outcome,[1],inactive
same,AC50,[2],inconclusive: 46.4 µM
same,AC50,[3],inconclusive: 46.4 µM
same,outcome,[6],inactive
O=C(O)c1ccc(OCCCOc2ccc(C(=O)O)cc2)cc1,outcome,[1],inactive
same,AC50,[2],inconclusive: 23 µM
same,outcome,[4],inactive
CCOC(=O)Cc1cccc(-c2cc(CCCCCCc3ccc(O[C@H]4O[C@H](COC(C)=O)[C@@H](OC(C)=O)[C@H](OC(C)=O)[C@@H]4OC(C)=O)c(-c4cccc(CC(=O)OCC)c4)c3)ccc2O[C@H]2O[C@H](COC(C)=O)[C@@H](OC(C)=O)[C@H](OC(C)=O)[C@@H]2OC(C)=O)c1,AC50,[1],inconclusive: 23 µM
same,outcome,[2],inactive
same,AC50,[4],inconclusive: 38.5 µM
same,AC50,[5],inconclusive: 23 µM
CCC(=O)c1c(O)cc(O)cc1O,AC50,[1],inconclusive: 23 µM
same,outcome,[2],inactive
same,outcome,[3],inactive
same,AC50,[5],inconclusive: 23 µM
Brc1c2ccccc2cc2ccccc12,AC50,[1],inconclusive: 13.7 µM
same,outcome,[2],inactive
same,outcome,[3],inactive
same,outcome,[6],inactive

# Random excerpt: 5 records from the list, in no set order.
smiles,measurement,setting,value
CCC(=O)c1c(O)cc(O)cc1O,AC50,[5],inconclusive: 23 µM
O=C(CCCN1CCC(C(=O)c2ccc(F)cc2)CC1)c1ccc(F)cc1,AC50,[2],inconclusive: 23 µM
CCC1=C(C)CN(C(=O)NCCc2ccc(S(=O)(=O)NC(=O)NC3CCC(C)CC3)cc2)C1=O (stereo not drawn),AC50,[1],inconclusive: 7.2e-05 µM
CC(=O)c1sc(C)nc1C,AC50,[3],inconclusive: 46.1 µM
CCN(CC)CCNC(=O)c1cc(Br)c(N)cc1OC,AC50,[3],inconclusive: 23 µM
